# Measured values reported in paper doi:10.64898/2025.12.26.696631.
# Amino acid sequences for entries named in this document (tags omitted). Residues count along the entry.
# UniProt Q9NZQ7, residues 19-290: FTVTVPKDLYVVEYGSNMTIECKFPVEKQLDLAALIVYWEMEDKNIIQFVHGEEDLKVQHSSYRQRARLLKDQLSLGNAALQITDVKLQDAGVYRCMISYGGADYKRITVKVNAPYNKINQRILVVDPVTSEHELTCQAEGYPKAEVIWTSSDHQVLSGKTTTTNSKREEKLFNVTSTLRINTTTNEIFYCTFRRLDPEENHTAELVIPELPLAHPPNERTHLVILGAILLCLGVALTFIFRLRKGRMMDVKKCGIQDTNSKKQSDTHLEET
# No constants are given. Whether binding was seen depends on the method and setting. Binding seen in cells or lysates may run through a third protein. Some binding calls cover weakened binding; strength is not graded here. Sequences can lack the tags named with a protein.
# Molecular target: T1, HA-tagged ZDHHC11 (UniProt Q9H8X9)
# T1 sequence: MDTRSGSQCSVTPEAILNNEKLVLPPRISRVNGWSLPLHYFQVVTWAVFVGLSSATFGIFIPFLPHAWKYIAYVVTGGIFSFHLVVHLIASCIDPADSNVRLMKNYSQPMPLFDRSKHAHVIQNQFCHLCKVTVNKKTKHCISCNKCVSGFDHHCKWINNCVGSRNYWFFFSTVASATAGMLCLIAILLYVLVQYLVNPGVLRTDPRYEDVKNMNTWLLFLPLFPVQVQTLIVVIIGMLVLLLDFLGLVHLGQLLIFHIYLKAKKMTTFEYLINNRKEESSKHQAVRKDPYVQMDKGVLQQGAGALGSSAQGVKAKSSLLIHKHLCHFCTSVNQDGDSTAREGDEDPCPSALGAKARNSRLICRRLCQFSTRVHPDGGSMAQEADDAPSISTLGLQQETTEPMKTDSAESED
# Experiment: co-IP
substance,measurement,value
programmed cell death ligand 1 (PD-L1) (from UniProt Q9NZQ7 19-290),binding,binds
